Reference: PubChem BioAssay AID1224830 (NIAID, 2016)

- Screen: 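Genes whose knock-down alters the TNF-alpha reporter response to LPS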 (primary screen)
- Cell system: human THP-1 monocytic leukaemia cells, TNF dual-luciferase reporter clone, PMA-differentiated to macrophage-like cells
- Reagents: siRNA pool against human genes, 50 nM
- Time to read-out: LPS for 4 h, given about 3 days after siRNA transfection
- Conditions: bacterial LPS (TLR4 ligand), 10 ng/ml
- Read-out: 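TNF firefly reporter luminescence divided by renilla, normalised to the plate median, then turned into a robust z-score for each replicate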
- Scale: TNF reporter robust z-score: higher = stronger TNF reporter response to LPS
- Rule for the call: 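a well is active when its z-score exceeds 2.8 or falls below -1.5; control wells carry no call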
Shown is an unselected part of about 18,000 reagents. Over the whole deposit, about 2,900 (16%) were called active. 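Calls are made per well; low scores hint the gene aids the LPS response, high scores that it dampens it.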 Repeated entries: four replicate wells of each siRNA pool.

The first 14 records as a preview:
Target gene	TNF reporter robust z-score	activity call
PCYT1B (phosphate cytidylyltransferase 1B, choline)	0.3	inactive
PCYT1B (phosphate cytidylyltransferase 1B, choline)	0.29	inactive
PCYT1B (phosphate cytidylyltransferase 1B, choline)	0.75	inactive
PCYT1B (phosphate cytidylyltransferase 1B, choline)	0.92	inactive
ZC3HAV1 (zinc finger CCCH-type containing, antiviral 1)	1.28	inactive
ZC3HAV1 (zinc finger CCCH-type containing, antiviral 1)	-0.05	inactive
ZC3HAV1 (zinc finger CCCH-type containing, antiviral 1)	-0.04	inactive
ZC3HAV1 (zinc finger CCCH-type containing, antiviral 1)	1.48	inactive
DEFB131A (defensin beta 131A)	1.4	inactive
DEFB131A (defensin beta 131A)	0.66	inactive
DEFB131A (defensin beta 131A)	0.96	inactive
DEFB131A (defensin beta 131A)	-0.2	inactive
DNAJB6 (DnaJ heat shock protein family (Hsp40) member B6)	-1.6	active
DNAJB6 (DnaJ heat shock protein family (Hsp40) member B6)	-1.02	inactive

The listing, repeating the preview:
Target gene	TNF reporter robust z-score	activity call
PCYT1B (phosphate cytidylyltransferase 1B, choline)	0.3	inactive
PCYT1B (phosphate cytidylyltransferase 1B, choline)	0.29	inactive
PCYT1B (phosphate cytidylyltransferase 1B, choline)	0.75	inactive
PCYT1B (phosphate cytidylyltransferase 1B, choline)	0.92	inactive
ZC3HAV1 (zinc finger CCCH-type containing, antiviral 1)	1.28	inactive
ZC3HAV1 (zinc finger CCCH-type containing, antiviral 1)	-0.05	inactive
ZC3HAV1 (zinc finger CCCH-type containing, antiviral 1)	-0.04	inactive
ZC3HAV1 (zinc finger CCCH-type containing, antiviral 1)	1.48	inactive
DEFB131A (defensin beta 131A)	1.4	inactive
DEFB131A (defensin beta 131A)	0.66	inactive
DEFB131A (defensin beta 131A)	0.96	inactive
DEFB131A (defensin beta 131A)	-0.2	inactive
DNAJB6 (DnaJ heat shock protein family (Hsp40) member B6)	-1.6	active
DNAJB6 (DnaJ heat shock protein family (Hsp40) member B6)	-1.02	inactive
DNAJB6 (DnaJ heat shock protein family (Hsp40) member B6)	-1.18	inactive
DNAJB6 (DnaJ heat shock protein family (Hsp40) member B6)	-0.53	inactive
IFT46 (intraflagellar transport 46)	-0.71	inactive
IFT46 (intraflagellar transport 46)	-1.57	active
IFT46 (intraflagellar transport 46)	-0.79	inactive
IFT46 (intraflagellar transport 46)	0.15	inactive
XAF1 (XIAP associated factor 1)	0.19	inactive
XAF1 (XIAP associated factor 1)	0.73	inactive
XAF1 (XIAP associated factor 1)	0.94	inactive
XAF1 (XIAP associated factor 1)	1.47	inactive
OR11H4 (olfactory receptor family 11 subfamily H member 4)	2.54	inactive
OR11H4 (olfactory receptor family 11 subfamily H member 4)	-0.18	inactive
OR11H4 (olfactory receptor family 11 subfamily H member 4)	-0.19	inactive
OR11H4 (olfactory receptor family 11 subfamily H member 4)	1.14	inactive
TREH (trehalase)	-0.75	inactive
TREH (trehalase)	0.28	inactive
TREH (trehalase)	-1.89	active
TREH (trehalase)	1.29	inactive
ZNF846 (zinc finger protein 846)	0.36	inactive
ZNF846 (zinc finger protein 846)	-0.39	inactive
ZNF846 (zinc finger protein 846)	-0.67	inactive
ZNF846 (zinc finger protein 846)	-0.15	inactive
BCAN (brevican)	3.43	active
BCAN (brevican)	1.67	inactive
BCAN (brevican)	-0.62	inactive
BCAN (brevican)	0.39	inactive
NSUN5P1 (NSUN5 pseudogene 1)	-0.94	inactive
NSUN5P1 (NSUN5 pseudogene 1)	-0.93	inactive
PSAPL1 (prosaposin like 1)	1.98	inactive
PSAPL1 (prosaposin like 1)	1.79	inactive
PSAPL1 (prosaposin like 1)	2.6	inactive
PSAPL1 (prosaposin like 1)	2.18	inactive
HGS (hepatocyte growth factor-regulated tyrosine kinase substrate)	-0.28	inactive
HGS (hepatocyte growth factor-regulated tyrosine kinase substrate)	-0.04	inactive
HGS (hepatocyte growth factor-regulated tyrosine kinase substrate)	-0.32	inactive
HGS (hepatocyte growth factor-regulated tyrosine kinase substrate)	4.72	active
A2ML1 (alpha-2-macroglobulin like 1)	-0.5	inactive
A2ML1 (alpha-2-macroglobulin like 1)	0.62	inactive
A2ML1 (alpha-2-macroglobulin like 1)	-0.75	inactive
A2ML1 (alpha-2-macroglobulin like 1)	0.24	inactive
OR8K1 (olfactory receptor family 8 subfamily K member 1)	1.14	inactive
OR8K1 (olfactory receptor family 8 subfamily K member 1)	0.26	inactive
OR8K1 (olfactory receptor family 8 subfamily K member 1)	7.98	active
OR8K1 (olfactory receptor family 8 subfamily K member 1)	3.2	active
CXCL5 (C-X-C motif chemokine ligand 5)	0.58	inactive
CXCL5 (C-X-C motif chemokine ligand 5)	0.51	inactive
CXCL5 (C-X-C motif chemokine ligand 5)	0.19	inactive
CXCL5 (C-X-C motif chemokine ligand 5)	-0.03	inactive
GON4L (gon-4 like)	1.9	inactive
GON4L (gon-4 like)	1.06	inactive
GON4L (gon-4 like)	0.81	inactive
GON4L (gon-4 like)	2.2	inactive
CTLA4 (cytotoxic T-lymphocyte associated protein 4)	-0.8	inactive
CTLA4 (cytotoxic T-lymphocyte associated protein 4)	-0.24	inactive
CTLA4 (cytotoxic T-lymphocyte associated protein 4)	0.76	inactive
CTLA4 (cytotoxic T-lymphocyte associated protein 4)	0	inactive
MANBAL (mannosidase beta like)	-0.55	inactive
MANBAL (mannosidase beta like)	1.21	inactive
MANBAL (mannosidase beta like)	-0.61	inactive
MANBAL (mannosidase beta like)	0.3	inactive
SLITRK5 (SLIT and NTRK like family member 5)	0.26	inactive
SLITRK5 (SLIT and NTRK like family member 5)	0.25	inactive
SLITRK5 (SLIT and NTRK like family member 5)	-0.14	inactive
SLITRK5 (SLIT and NTRK like family member 5)	0.21	inactive
MINDY1 (MINDY lysine 48 deubiquitinase 1)	-0.97	inactive
MINDY1 (MINDY lysine 48 deubiquitinase 1)	-0.74	inactive
MINDY1 (MINDY lysine 48 deubiquitinase 1)	-0.87	inactive
MINDY1 (MINDY lysine 48 deubiquitinase 1)	-1.03	inactive
ROPN1B (rhophilin associated tail protein 1B)	-0.3	inactive
ROPN1B (rhophilin associated tail protein 1B)	0.73	inactive
ROPN1B (rhophilin associated tail protein 1B)	0.24	inactive
ROPN1B (rhophilin associated tail protein 1B)	1.29	inactive
SMYD5 (SMYD family member 5)	1.4	inactive
SMYD5 (SMYD family member 5)	1.66	inactive
SMYD5 (SMYD family member 5)	0.06	inactive
SMYD5 (SMYD family member 5)	2.08	inactive
SKIC8 (SKI8 subunit of superkiller complex)	-1.77	active
SKIC8 (SKI8 subunit of superkiller complex)	-1.73	active
SKIC8 (SKI8 subunit of superkiller complex)	-1.87	active
WNT3A (Wnt family member 3A)	-1.49	inactive
WNT3A (Wnt family member 3A)	-1.07	inactive
WNT3A (Wnt family member 3A)	-1.01	inactive
WNT3A (Wnt family member 3A)	-0.69	inactive
PPDPF	-0.53	inactive
PPDPF	1.84	inactive
PPDPF	0.14	inactive
PPDPF	3.46	active
TLR1 (toll like receptor 1)	1.02	inactive
TLR1 (toll like receptor 1)	0.91	inactive
TLR1 (toll like receptor 1)	0.21	inactive
TLR1 (toll like receptor 1)	0.61	inactive
ITGB5 (integrin subunit beta 5)	-0.23	inactive
ITGB5 (integrin subunit beta 5)	0.39	inactive
ITGB5 (integrin subunit beta 5)	0.26	inactive
ITGB5 (integrin subunit beta 5)	0.52	inactive
SLC6A16	-0.01	inactive
SLC6A16	-1.48	inactive
SLC6A16	-1.73	active
SLC6A16	-1.37	inactive
LINGO1 (leucine rich repeat and Ig domain containing 1)	2.38	inactive
LINGO1 (leucine rich repeat and Ig domain containing 1)	2.35	inactive
LINGO1 (leucine rich repeat and Ig domain containing 1)	2.27	inactive
LINGO1 (leucine rich repeat and Ig domain containing 1)	0.54	inactive
KRT33B (keratin 33B)	2.29	inactive
KRT33B (keratin 33B)	0.5	inactive
KRT33B (keratin 33B)	1.33	inactive
KRT33B (keratin 33B)	2.75	inactive
DIXDC1 (DIX domain containing 1)	0.91	inactive
DIXDC1 (DIX domain containing 1)	0.4	inactive
DIXDC1 (DIX domain containing 1)	2.08	inactive
DIXDC1 (DIX domain containing 1)	0.6	inactive
MAP3K20 (mitogen-activated protein kinase kinase kinase 20)	-0.46	inactive
MAP3K20 (mitogen-activated protein kinase kinase kinase 20)	2.12	inactive
MAP3K20 (mitogen-activated protein kinase kinase kinase 20)	0.41	inactive
MAP3K20 (mitogen-activated protein kinase kinase kinase 20)	0.01	inactive
FBXO31 (F-box protein 31)	-2.23	active
FBXO31 (F-box protein 31)	-1.09	inactive
FBXO31 (F-box protein 31)	-1.39	inactive
FBXO31 (F-box protein 31)	-0.97	inactive
C1orf210 (chromosome 1 open reading frame 210)	-0.64	inactive
C1orf210 (chromosome 1 open reading frame 210)	-0.29	inactive
C1orf210 (chromosome 1 open reading frame 210)	-0.56	inactive
C1orf210 (chromosome 1 open reading frame 210)	0.54	inactive
CHP2 (calcineurin like EF-hand protein 2)	-0.61	inactive
CHP2 (calcineurin like EF-hand protein 2)	0.95	inactive
CHP2 (calcineurin like EF-hand protein 2)	1.13	inactive
CHP2 (calcineurin like EF-hand protein 2)	1.27	inactive
